# Data from PubChem BioAssay AID1347423 (Functional Genomics Laboratory (NCATS/FGL), 2020).
# The whole screen tested about 52,000 sequences, of which about 210 (0.4%) were called active.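 Rule for the calls: active = gene whose silencing raises cell survival under the drug, median off-target-corrected z-score across its silencing RNAs 2 or more; inactive = the rest.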 Some of the results follow.
# Experiment: Resistance to Poly (ADP-Ribose) Polymerase inhibitor: Gene Identification via Genome-wide siRNA Screen
# Details: mouse BRCA2 R2336H ES cells, olaparib, CellTiter-Glo viability; stronger effect = higher value
# Method in brief: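 Genome-wide siRNA screen (3 siRNAs/gene, 20 nM) in mouse ES cells carrying hypomorphic BRCA2 R2336H; olaparib 500 nM added 48 h post-transfection, CellTiter-Glo viability 72 h later. Normalized to plate-median negative control; MAD z-scores, gene median, seed-adjusted.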
row,Sequence,z-score
1,CCACAAAUAUAUGGGUUACTT against Tbc1d5,inactive: -0.687
2,GGGAGAACGGGUUCUCUUUTT against Sox12,inactive: 0.0917
3,GGAAAUGUUGCAUUUUUGATT against Ltf,inactive: 1.34
4,CCUUUCAGGCCAAUUGGCATT against Ube2l6,inactive: 0.111
5,GGACUCAAAAGUCCCUGUATT against Gpr97,inactive: -1.4
6,CCUAUGAAGGACACAGACUTT against Trim9,inactive: -0.241
7,GGCAGCUGAGCAUAAUCCCTT against Rbm21,inactive: -0.111
8,GACUAGGACACUGACCCUCTT against Ifna12,inactive: 1.65
9,GGCAAAUAUAUCCUCUUUGTT against Gpx3,inactive: -0.911
10,GAUGCUAUCUGGCUUUCUUTT against Olfr981,inactive: -0.356
11,CCAACACCAUUCAAAUAGATT against 6430546I09,inactive: 3.41
12,GCACUUCGAAUGUACUGUCTT against Gnrh2,inactive: 1.05
13,GGAACAUGAAGACUAUACATT against BB049667,inactive: 0.538
14,GCACAGAAAUAUUAAAGUCTT against Foxp4,inactive: -0.504
15,AAAGUAAGAGACUACGCUCTT against H2-Q2,inactive: 0.455
16,CGGGCUGCUACGAAAAAGUTT against 9430079M16Rik,inactive: -2.22
17,CCAUGGACUUUCUCGAAGATT against Ceacam11,inactive: 0.519
18,GGGCGAGUUCAACUGAGACTT against Hapln3,inactive: -0.222
19,GGAAACAAGGAUAUUCUUUTT against Fanca,inactive: 1.22
20,GCCAUGUGUCUCACAAGUCTT against Sprr1b,inactive: -0.47
21,GGAAUCGGUGGCCAUCAAUTT against Olfr771,inactive: 0.782
22,GGGAUUUGCCAAAGAAUAGTT against AI597479,inactive: -0.308

row,Sequence,z-score
1,GGAAUGGUUAUGAAUUUGATT against Pts,inactive: -0.253
2,GGGCAUUAAGACAAAGAGUTT against D6Wsu176e,inactive: 0.725
3,GGUGAGAAGAUGUCUCUUATT against Olfr103,inactive: 0.149
4,GCAAGUCAUGCGAAUACAATT against Chrdl1,inactive: -2.07
5,GGAGCGAUUUGAUGAUAUGTT against 1110034C04Rik,inactive: -0.0765
6,GGAUGAAAUGGAAGAAAAUTT against Barx1,inactive: -0.676
7,GGGACCUGACCUUACUCAUTT against 9330132O05Rik,inactive: -2.82
8,GGAGAUCCACUUCCUCAAGTT against B3gnt7,inactive: 0.389
9,GCCAUUGGUUGGGAUAAACTT against Fancl,inactive: 1.19
10,CCAUUACACAAAGUUUUGCTT against Stard6,inactive: 0.874
11,GCCUAUCUGUGACUGACCUTT against LOC433501,inactive: 1.1
12,CCACCUUCGGUUCAACUAUTT against Gal3st2,inactive: -0.128
13,GGAUGUGGAAUCAUGCUAUTT against C430013M08Rik,inactive: -2.06
14,GGUCCCAAGAAUUUUUAAATT against Kntc2,inactive: 0.519
15,GGCGGUUUAUGGUAUAAACTT against 2700049P18Rik,inactive: 1.39
16,GGCGCAUUAUGGAGACUCATT against Cebpe,inactive: -0.199
17,GGACUUUGCGUAUAGCCCUTT against Tulp3,inactive: 0.196
18,CGUAAAAGGACUCUACAAATT against Papss2,inactive: 0.567
19,CCGAAAAUGUGGUAAAGUATT against 2610207I05Rik,inactive: -2.13
20,GGUUUUCCCUCCAGAUGAGTT against Mtch1,inactive: 1.2
21,GGCACAAGUCCAUGUUGUUTT against Grcc2f,inactive: -1.91
22,GGGCUUGUUUGACUUUCAUTT against Btd,inactive: -0.89

row,Sequence,z-score
1,CGAACUCGAAUGCUAACGCTT against D7Ertd156e,inactive: 0.897
2,GGCUGUGGAAAACAGUAGUTT against Psma3,inactive: 1.24
3,CCUGGUGCUAUGGACUAAATT against Tectb,inactive: 0.706
4,GGCAAAAAGAUAGGAGCUGTT against Txn1,inactive: -1.73
5,GGAAUUAUAGGACUUGUUCTT against Tde2,inactive: 1.01
6,GGAGGAAGAUCUUUAAUGUTT against LOC215714,inactive: 1.09
7,GGCUCUGGCUGAUUUUGCATT against 2510048K03Rik,inactive: 1.25
8,GCUCUAAAGAGUCCCAAGATT against 2610020O08Rik,inactive: -1.34
9,GGAGUCUUGGAAAAAAGGCTT against 2210417D09Rik,inactive: -0.446
10,GCUAUGUUUAGGCACAAUATT against C130023O10Rik,inactive: 0.567
11,GGAAAAGUGAAGGUGAUUCTT against Stch,inactive: 0.739
12,GCUGCUCCCUCUAAUAAAATT against Cbr1,inactive: 0.901
13,GGAAUAUGAGUUUUCUCAGTT against Zfp68,inactive: -1.05
14,GGAGUCUGUCUUAUCAUUUTT against 2900011O08Rik,inactive: 1.29
15,GGCAUCUGUAAGAUGUACGTT against 1700018B24Rik,inactive: 0.159
16,UUUAUACUUCCCUGAUUUUTT against Olfr943,inactive: 0.856
17,GGGUCUAAGAUGCAAACGCTT against Flt3l,inactive: 0.967
18,CCUAUACUUUUGGUCUUAGTT against 2010305A19Rik,inactive: -1.41
19,GGGCUUAUUUAAAAAGAAGTT against Foxa1,inactive: -1.43
20,GCAAAGAUUCAGGCCUGUGTT against Tle6,inactive: -2.1
21,GGGAAAGCCAUAUUUUUUATT against Galr1,inactive: 1.61
22,GCAUAUGGAGCAACUUGCUTT against Dsg1c,inactive: 1.83

# An excerpt of these results, with tabs:
row	Sequence	z-score
5	GGAAUUAUAGGACUUGUUCTT against Tde2	inactive: 1.01
6	GGAGGAAGAUCUUUAAUGUTT against LOC215714	inactive: 1.09
7	GGCUCUGGCUGAUUUUGCATT against 2510048K03Rik	inactive: 1.25
8	GCUCUAAAGAGUCCCAAGATT against 2610020O08Rik	inactive: -1.34
9	GGAGUCUUGGAAAAAAGGCTT against 2210417D09Rik	inactive: -0.446
10	GCUAUGUUUAGGCACAAUATT against C130023O10Rik	inactive: 0.567
11	GGAAAAGUGAAGGUGAUUCTT against Stch	inactive: 0.739
12	GCUGCUCCCUCUAAUAAAATT against Cbr1	inactive: 0.901
13	GGAAUAUGAGUUUUCUCAGTT against Zfp68	inactive: -1.05
14	GGAGUCUGUCUUAUCAUUUTT against 2900011O08Rik	inactive: 1.29
15	GGCAUCUGUAAGAUGUACGTT against 1700018B24Rik	inactive: 0.159
16	UUUAUACUUCCCUGAUUUUTT against Olfr943	inactive: 0.856
17	GGGUCUAAGAUGCAAACGCTT against Flt3l	inactive: 0.967
18	CCUAUACUUUUGGUCUUAGTT against 2010305A19Rik	inactive: -1.41
